Experimental data as given in patent US20250270645A1, “ALGORITHM AND AN IN VITRO METHOD BASED ON RNA EDITING TO SELECT PARTICULAR EFFECT INDUCED BY ACTIVE COMPOUNDS” (ALCEDIAG, priority 2016, published 2025).
At least one compound was matched to its structure with a doubt left.

System: HTR2C RNA editing
Test: Dose-dependent alterations of HTR2C RNA editing profile in SH-SY5Y cells
Format: cell-based, human
Conditions: compared to vehicle-treated cells
Description: Prior to the experiment, the human neuroblastoma cell line (SH-SY5Y) was treated with an increasing dose of interferon and RNA editing of 5HT2cR was measured using NGS based approach.
The RNA editing profiles represent the respective relative proportion of HTR2C RNA editing as compared to vehicle-treated SH-SY5Y cells.

CN1CCN(C2=Nc3cc(Cl)ccc3Nc3ccccc32)CC1 [Clozapine]
dose dependence of 5-HT2cR/HTR2C RNA editing profile: Dose-dependent alterations of RNA editing profiles
